Test results: US20190374563A1, “TREATMENT OF KLEBSIELLA PNEUMONIAE INFECTIONS WITH ANTIBACTERIAL AMINOGLYCOSIDE COMPOUNDS” (Achaogen, Inc., priority 2009, published 2019)

Tested on: S. aureus ATCC 33591 (MRSA)
Assay: MIC of strains used in the thigh model
Assay type: cell-based
Conditions: Staphylococcus aureus

Q: How did the MIC turn out when `CN[C@H](CC(C)C)C(=O)N[C@H]1C(=O)N[C@@H](CC(N)=O)C(=O)N[C@H]2C(=O)N[C@H]3C(=O)N[C@H](C(=O)N[C@H](C(=O)O)c4cc(O)cc(O)c4-c4cc3ccc4O)[C@H](O)c3ccc(c(Cl)c3)Oc3cc2cc(c3O[C@@H]2O[C@H](CO)[C@@H](O)[C@H](O)[C@H]2O[C@H]2C[C@](C)(N)[C@H](O)[C@H](C)O2)Oc2ccc(cc2Cl)[C@H]1O` [VAN, vancomycin] was run?
A: Its MIC is 1 µg/mL.
